According to PMC8113879, “Molecular properties of human guanylate cyclase–activating protein 2 (GCAP2) and its retinal dystrophy–associated variant G157R” (The Journal of Biological Chemistry, 2021):
These are yes or no findings as the source states them, for the method shown.

Molecular target: nonmyristoylated human guanylate cyclase-activating protein 2 (human) (UniProt Q9UMX6)
Experiment: condition: only in the absence of Ca2+ (500 uM EGTA + 1 mM Mg2+); ~40 uM protein; SEC; analytical SEC, Superose 12 10/300GL, 20 mM Tris HCl pH 7.5, 150 mM KCl, 1 mM DTT, 500 uM EGTA + 1 mM Mg2+ (no Ca2+), 25 C; ~40 uM protein or 5-80 uM for the titration; apparent KD from a hyperbolic fit of apparent mass against concentration; monomer to dimer; both purified

binding: no binding
B1: nonmyristoylated human guanylate cyclase-activating protein 2 (natural protein, UniProt Q9UMX6 1-200, looked up)
chain: MGQEFSWEEAEAAGEIDVAELQEWYKKFVMECPSGTLFMHEFKRFFKVTDDEEASQYVEGMFRAFDKNGDNTIDFLEYVAALNLVLRGTLEHKLKWTFKIYDKDGNGCIDRLELLNIVEGIYQLKKACRRELQTEQGQLLTPEEVVDRIFLLVDENGDGQLSLNEFVEGARRDKWVMKMLQMDMNPSSWLAQQRRKSAMF
notes: cDNA cloned into pET-11a(+) with NdeI and NheI; No tag is mentioned; also called nmGCAP2; nonmyristoylated GCAP2
